Reference: publication PMC8033486 (Frontiers in Pharmacology, 2021)
Where two headings read alike, the source gives them in different places.

Tested on: SARS-CoV-2
Format: cell-based

| Structure (SMILES) | IC50 (Mean +/- SD) | IC50 (Mean +/- SD) (Vero E6, cytopathic effect 3 days after infection, repeated experiments) |
| --- | --- | --- |
| COc1cc2c(c(OC)c1OC)-c1ccc(OC)c(=O)cc1[C@@H](NC(C)=O)CC2 [Colchicine] | Not Active | – |
| C[C@@H]1CCN(C(=O)CC#N)C[C@@H]1N(C)c1ncnc2[nH]ccc12 [Tofacitinib] | – | Not Active |
